# This is one part of the list.
# Amino acid sequences for entries named in this document (tags omitted). A change or cut given only in a name is not applied to a line headed by its entry.
# UniProt Q9BV29: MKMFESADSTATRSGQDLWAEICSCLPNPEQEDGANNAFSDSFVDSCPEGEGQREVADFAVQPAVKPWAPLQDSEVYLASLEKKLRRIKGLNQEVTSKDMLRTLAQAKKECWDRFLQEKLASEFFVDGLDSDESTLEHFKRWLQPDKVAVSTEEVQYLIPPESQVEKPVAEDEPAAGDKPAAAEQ
# UniProt O96020, whole entry, looked up: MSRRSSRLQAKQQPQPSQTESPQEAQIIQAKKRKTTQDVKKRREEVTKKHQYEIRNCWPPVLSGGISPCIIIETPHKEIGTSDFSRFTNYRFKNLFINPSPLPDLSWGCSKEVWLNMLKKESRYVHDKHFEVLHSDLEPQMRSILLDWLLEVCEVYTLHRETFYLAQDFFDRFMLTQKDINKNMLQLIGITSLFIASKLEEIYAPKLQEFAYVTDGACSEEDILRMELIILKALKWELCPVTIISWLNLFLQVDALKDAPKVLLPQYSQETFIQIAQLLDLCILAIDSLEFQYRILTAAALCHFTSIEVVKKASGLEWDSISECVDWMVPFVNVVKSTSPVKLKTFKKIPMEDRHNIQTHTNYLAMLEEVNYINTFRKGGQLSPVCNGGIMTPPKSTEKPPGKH
# UniProt Q8NHZ8, whole entry, looked up: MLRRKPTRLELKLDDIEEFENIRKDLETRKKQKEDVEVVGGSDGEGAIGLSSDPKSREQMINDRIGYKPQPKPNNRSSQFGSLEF
# UniProt P04040: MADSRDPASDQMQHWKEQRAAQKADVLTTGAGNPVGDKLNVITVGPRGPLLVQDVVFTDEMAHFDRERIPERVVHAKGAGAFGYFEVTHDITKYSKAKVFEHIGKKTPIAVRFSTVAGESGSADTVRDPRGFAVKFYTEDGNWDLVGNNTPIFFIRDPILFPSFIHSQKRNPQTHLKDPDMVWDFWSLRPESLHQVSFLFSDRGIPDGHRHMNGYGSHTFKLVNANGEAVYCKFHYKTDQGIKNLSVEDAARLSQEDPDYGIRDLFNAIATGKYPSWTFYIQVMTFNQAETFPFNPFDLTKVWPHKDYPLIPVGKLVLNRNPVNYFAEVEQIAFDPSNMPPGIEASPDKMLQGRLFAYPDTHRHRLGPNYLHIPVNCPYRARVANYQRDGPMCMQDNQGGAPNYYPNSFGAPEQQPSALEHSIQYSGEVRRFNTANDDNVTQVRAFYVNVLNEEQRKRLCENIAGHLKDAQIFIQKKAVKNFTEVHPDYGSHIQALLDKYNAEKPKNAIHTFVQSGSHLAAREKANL
# UniProt Q8N4T8: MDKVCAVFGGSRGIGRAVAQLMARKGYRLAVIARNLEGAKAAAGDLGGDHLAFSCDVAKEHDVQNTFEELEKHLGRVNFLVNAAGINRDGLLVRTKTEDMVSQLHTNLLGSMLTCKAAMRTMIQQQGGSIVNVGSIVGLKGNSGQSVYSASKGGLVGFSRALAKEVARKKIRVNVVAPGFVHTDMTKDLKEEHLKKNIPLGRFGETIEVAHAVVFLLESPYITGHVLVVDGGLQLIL
# UniProt Q9H6E4: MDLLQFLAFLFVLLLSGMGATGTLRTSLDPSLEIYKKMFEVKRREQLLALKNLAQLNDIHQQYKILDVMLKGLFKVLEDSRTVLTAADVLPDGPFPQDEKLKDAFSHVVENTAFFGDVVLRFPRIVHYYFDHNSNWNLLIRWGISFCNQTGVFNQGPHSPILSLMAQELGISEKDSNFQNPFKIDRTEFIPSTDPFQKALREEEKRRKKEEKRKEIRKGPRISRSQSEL
# UniProt Q8IWP9: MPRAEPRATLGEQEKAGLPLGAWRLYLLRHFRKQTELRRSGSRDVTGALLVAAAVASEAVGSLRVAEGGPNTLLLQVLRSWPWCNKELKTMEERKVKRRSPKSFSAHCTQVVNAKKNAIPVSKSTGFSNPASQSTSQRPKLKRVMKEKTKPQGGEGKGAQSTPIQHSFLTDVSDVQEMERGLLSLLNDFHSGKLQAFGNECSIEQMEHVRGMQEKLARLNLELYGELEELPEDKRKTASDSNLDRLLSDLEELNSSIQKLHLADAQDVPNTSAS
# UniProt P60953, whole entry, looked up: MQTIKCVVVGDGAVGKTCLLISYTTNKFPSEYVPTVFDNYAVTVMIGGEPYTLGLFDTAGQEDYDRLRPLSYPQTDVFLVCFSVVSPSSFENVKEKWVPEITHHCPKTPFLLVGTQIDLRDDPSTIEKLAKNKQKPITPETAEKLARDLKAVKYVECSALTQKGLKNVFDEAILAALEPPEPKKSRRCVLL
# UniProt Q96BQ5: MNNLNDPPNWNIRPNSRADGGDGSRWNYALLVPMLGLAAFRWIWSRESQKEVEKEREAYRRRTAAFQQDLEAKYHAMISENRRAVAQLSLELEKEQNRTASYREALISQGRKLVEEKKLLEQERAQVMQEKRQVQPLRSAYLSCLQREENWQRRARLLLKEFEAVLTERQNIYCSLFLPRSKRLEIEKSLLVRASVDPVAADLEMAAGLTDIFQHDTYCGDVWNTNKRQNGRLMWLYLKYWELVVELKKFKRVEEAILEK
# UniProt Q6NZI2: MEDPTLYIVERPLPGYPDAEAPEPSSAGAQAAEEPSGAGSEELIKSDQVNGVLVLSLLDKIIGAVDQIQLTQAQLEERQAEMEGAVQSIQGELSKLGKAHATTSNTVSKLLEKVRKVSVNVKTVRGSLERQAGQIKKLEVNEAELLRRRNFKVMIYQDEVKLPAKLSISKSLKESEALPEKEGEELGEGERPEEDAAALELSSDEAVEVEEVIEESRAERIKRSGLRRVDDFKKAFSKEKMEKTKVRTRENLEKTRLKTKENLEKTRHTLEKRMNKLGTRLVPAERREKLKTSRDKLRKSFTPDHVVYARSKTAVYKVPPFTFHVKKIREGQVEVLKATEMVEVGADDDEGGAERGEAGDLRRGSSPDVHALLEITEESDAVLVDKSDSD
# UniProt Q8IX12: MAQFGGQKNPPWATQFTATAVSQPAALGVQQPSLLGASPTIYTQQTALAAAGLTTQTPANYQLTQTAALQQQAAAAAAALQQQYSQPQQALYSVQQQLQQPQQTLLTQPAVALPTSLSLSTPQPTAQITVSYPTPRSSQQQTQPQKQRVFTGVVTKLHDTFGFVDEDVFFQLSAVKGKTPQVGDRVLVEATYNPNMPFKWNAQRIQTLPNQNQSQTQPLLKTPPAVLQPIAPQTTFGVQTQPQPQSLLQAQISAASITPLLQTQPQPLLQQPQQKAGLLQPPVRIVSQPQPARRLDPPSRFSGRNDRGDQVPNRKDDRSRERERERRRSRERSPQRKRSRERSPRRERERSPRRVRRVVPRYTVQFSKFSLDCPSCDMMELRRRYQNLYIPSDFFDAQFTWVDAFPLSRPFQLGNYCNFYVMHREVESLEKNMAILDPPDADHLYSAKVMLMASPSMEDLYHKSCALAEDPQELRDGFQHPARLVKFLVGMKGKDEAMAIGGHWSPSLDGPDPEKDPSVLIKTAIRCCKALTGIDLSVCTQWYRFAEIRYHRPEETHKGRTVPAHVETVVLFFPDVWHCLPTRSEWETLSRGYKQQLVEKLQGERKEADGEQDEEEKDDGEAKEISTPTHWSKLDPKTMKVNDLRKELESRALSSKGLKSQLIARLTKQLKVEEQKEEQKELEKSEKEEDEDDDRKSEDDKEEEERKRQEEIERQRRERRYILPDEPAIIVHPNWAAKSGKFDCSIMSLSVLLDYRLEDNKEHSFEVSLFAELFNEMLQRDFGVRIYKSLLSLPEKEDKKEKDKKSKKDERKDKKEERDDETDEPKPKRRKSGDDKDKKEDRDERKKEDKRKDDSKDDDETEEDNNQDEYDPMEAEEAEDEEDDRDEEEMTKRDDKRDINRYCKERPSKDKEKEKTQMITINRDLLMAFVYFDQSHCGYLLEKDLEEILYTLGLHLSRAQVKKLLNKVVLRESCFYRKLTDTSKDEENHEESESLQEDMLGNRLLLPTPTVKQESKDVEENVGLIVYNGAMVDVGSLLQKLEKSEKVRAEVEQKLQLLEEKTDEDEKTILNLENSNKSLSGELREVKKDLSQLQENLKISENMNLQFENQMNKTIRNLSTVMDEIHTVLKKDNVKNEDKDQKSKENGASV
# UniProt Q4G0I0: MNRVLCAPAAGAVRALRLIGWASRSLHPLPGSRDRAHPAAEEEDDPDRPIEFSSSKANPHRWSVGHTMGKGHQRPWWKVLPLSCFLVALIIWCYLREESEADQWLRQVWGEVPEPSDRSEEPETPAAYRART
# UniProt Q13042, whole entry, looked up: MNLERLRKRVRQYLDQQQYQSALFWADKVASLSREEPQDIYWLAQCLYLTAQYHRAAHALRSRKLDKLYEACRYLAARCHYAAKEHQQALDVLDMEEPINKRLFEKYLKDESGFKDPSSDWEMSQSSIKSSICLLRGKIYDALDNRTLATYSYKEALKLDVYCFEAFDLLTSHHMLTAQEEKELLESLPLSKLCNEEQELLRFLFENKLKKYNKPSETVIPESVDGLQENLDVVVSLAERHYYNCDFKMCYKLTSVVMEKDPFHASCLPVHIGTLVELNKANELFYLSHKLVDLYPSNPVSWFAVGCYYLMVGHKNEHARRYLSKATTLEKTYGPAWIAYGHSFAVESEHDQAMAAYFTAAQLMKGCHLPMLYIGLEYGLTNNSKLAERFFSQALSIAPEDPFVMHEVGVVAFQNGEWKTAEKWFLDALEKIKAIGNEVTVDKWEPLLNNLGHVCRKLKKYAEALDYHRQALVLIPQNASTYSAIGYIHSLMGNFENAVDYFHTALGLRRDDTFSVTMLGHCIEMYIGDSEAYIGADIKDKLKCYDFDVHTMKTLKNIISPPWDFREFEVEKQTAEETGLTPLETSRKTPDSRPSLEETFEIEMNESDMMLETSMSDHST
# UniProt Q96F63: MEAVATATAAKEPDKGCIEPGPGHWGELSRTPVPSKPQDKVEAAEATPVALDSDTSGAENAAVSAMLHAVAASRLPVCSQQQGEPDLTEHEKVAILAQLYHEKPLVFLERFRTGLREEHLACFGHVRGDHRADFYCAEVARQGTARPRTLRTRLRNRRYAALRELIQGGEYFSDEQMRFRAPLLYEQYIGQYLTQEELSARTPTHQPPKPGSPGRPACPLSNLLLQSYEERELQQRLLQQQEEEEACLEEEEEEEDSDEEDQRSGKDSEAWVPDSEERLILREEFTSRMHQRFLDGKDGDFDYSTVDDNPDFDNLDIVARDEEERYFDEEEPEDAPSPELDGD
# UniProt P60033: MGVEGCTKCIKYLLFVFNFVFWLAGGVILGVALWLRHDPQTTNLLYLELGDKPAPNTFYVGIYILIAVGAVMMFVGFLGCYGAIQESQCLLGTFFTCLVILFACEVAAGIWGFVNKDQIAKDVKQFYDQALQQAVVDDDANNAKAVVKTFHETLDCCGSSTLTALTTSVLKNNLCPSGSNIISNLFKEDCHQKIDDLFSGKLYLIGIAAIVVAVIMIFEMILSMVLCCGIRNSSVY
# UniProt P20810: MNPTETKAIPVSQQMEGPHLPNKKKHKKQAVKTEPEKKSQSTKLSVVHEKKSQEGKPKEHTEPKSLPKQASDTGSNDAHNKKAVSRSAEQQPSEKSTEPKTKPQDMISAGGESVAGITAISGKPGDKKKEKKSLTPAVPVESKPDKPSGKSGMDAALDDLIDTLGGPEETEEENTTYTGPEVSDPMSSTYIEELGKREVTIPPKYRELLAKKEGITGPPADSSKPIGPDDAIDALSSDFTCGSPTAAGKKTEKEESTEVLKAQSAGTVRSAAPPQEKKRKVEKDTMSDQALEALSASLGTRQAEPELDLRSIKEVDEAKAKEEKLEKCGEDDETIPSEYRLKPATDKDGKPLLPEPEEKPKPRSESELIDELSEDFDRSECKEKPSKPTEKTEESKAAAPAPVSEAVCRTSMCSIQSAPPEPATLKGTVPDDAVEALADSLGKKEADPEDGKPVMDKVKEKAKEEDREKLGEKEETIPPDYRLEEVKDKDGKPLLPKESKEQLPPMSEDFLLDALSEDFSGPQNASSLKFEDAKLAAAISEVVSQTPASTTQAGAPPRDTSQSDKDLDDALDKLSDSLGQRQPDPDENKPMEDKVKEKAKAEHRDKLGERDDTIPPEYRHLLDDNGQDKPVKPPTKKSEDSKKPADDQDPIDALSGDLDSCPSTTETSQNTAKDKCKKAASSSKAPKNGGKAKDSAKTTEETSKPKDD
# UniProt Q86X55: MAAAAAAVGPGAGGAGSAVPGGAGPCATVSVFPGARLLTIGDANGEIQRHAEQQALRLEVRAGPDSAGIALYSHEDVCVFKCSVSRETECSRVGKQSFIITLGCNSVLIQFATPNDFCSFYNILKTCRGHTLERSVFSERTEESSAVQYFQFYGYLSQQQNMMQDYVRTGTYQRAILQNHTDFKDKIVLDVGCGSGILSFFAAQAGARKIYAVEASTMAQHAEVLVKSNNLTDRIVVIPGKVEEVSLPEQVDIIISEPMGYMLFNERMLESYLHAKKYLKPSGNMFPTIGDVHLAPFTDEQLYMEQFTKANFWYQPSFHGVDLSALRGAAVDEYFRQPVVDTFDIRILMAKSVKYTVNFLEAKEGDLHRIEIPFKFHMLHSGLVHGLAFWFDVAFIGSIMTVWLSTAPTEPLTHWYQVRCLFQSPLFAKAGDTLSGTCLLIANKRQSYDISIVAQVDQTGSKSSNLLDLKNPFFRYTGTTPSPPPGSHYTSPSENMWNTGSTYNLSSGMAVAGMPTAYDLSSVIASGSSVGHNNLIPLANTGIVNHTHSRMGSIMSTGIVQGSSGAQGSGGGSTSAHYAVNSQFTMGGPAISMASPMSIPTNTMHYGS
# Legend:
# Assay in all cases: log2 fold change, soluble protein after heating vs DMSO (PISA); higher = thermal stabilisation; K562 cells, 10 uM, 30 min; active = over 0.2 and 3.5 SD of the protein, either way, in both replicates (recomputed)
# [1] = compound: COC1=CC=C(C=C1)CN2C=CC3=C2C=C(C=C3)C(=O)NO
# How it was run: (§1)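 Quantification of soluble protein used TMTpro 16plex LC-MS/MS, with channel sums equalised. Samples were the supernatant after 21,000xg for 90 min of pooled aliquots from K562 cells (2×10^6 cells/mL) treated with 10 μM compound for 30 min, heated for 3 min over 48°C-58°C, and extracted in PBS with 0.5% NP-40 at 4°C. Values, from duplicates, describe thermal stability against control samples on a log2 fold-change scale.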
# filanesib = compound: CON(C)C(=O)N1N=C(c2cc(F)ccc2F)S[C@@]1(CCCN)c1ccccc1 [filanesib]
# How it was run: as §1
# zotarolimus = compound: CO[C@H]1C[C@@H]2CC[C@@H](C)[C@@](O)(O2)C(=O)C(=O)N2CCCC[C@H]2C(=O)O[C@H]([C@H](C)C[C@@H]2CC[C@H](n3cnnn3)[C@H](OC)C2)CC(=O)[C@H](C)/C=C(\C)[C@@H](O)[C@@H](OC)C(=O)[C@H](C)C[C@H](C)/C=C/C=C/C=C/1C [zotarolimus]
# How it was run: as §1
# idasanutlin = compound: COc1cc(C(=O)O)ccc1NC(=O)[C@@H]1N[C@@H](CC(C)(C)C)[C@](C#N)(c2ccc(Cl)cc2F)[C@H]1c1cccc(Cl)c1F [idasanutlin]
# How it was run: as §1
# alisertib = compound: COc1cc(Nc2ncc3c(n2)-c2ccc(Cl)cc2C(c2c(F)cccc2OC)=NC3)ccc1C(=O)O [alisertib]
# How it was run: as §1
# [2] = compound: COc1cc2nc(-c3cc(F)ccc3O)nc(N[C@@H]3CNC[C@H]3C(C)(C)O)c2cc1OC
# How it was run: as §1
# gefitinib = compound: COc1cc2ncnc(Nc3ccc(F)c(Cl)c3)c2cc1OCCCN1CCOCC1 [gefitinib]
# How it was run: as §1
# [3] = compound: COc1cccc2cc(-c3nc([C@H]4CC[C@H](C(=O)O)CC4)n4ncnc(N)c34)[nH]c12
# How it was run: as §1
# lapatinib = compound: CS(=O)(=O)CCNCc1ccc(-c2ccc3ncnc(Nc4ccc(OCc5cccc(F)c5)c(Cl)c4)c3c2)o1 [lapatinib]
# How it was run: as §1
# pictilisib = compound: CS(=O)(=O)N1CCN(Cc2cc3nc(-c4cccc5[nH]ncc45)nc(N4CCOCC4)c3s2)CC1 [pictilisib]
# How it was run: as §1
Target,log2 fold change [1],log2 fold change (filanesib),log2 fold change (zotarolimus),log2 fold change (idasanutlin),log2 fold change (alisertib),log2 fold change [2],log2 fold change (gefitinib),log2 fold change [3],log2 fold change (lapatinib),log2 fold change (pictilisib)
CCDC32 isoform 2 (UniProt Q9BV29),inactive: -0.005,inactive: 0.028,inactive: -0.024,inactive: 0.083,inactive: -0.001,inactive: -0.003,inactive: -0.051,inactive: 0.076,inactive: -0.014,inactive: -0.01
CCNE2 (UniProt O96020),inactive: 0.175,,,,,,,,,
CARS isoform 3 (UniProt P49589),inactive: 0.001,inactive: -0.042,inactive: -0.015,inactive: -0.032,inactive: -0.044,inactive: 0,inactive: -0.004,inactive: 0.027,inactive: 0.012,inactive: -0.029
CD63 (UniProt P08962),inactive: -0.053,active: -0.336,inactive: -0.01,inactive: -0.051,inactive: -0.069,inactive: -0.031,inactive: -0.076,inactive: 0.096,inactive: -0.002,inactive: 0.032
CCT7 (UniProt Q99832),inactive: -0.02,inactive: -0.023,inactive: 0.02,inactive: -0.019,inactive: -0.042,inactive: -0.014,inactive: -0.011,inactive: -0.013,inactive: 0.001,inactive: -0.068
CCDC50 (UniProt Q8IVM0),inactive: -0.118,inactive: 0.034,inactive: -0.049,inactive: -0.001,inactive: -0.006,inactive: 0.096,inactive: 0.029,inactive: 0,inactive: -0.034,inactive: 0.027
CDC26 (UniProt Q8NHZ8),inactive: -0.031,inactive: 0.085,inactive: -0.011,inactive: -0.053,inactive: -0.023,inactive: 0,inactive: 0.003,inactive: -0.017,inactive: -0.023,inactive: -0.125
CAT (UniProt P04040),inactive: 0.011,inactive: -0.021,inactive: -0.025,inactive: 0.19,inactive: -0.02,inactive: 0,inactive: -0.007,inactive: 0.062,inactive: -0.022,inactive: 0.018
CBR4 (UniProt Q8N4T8),inactive: -0.007,inactive: 0.001,inactive: -0.011,inactive: -0.13,inactive: -0.006,inactive: 0.017,inactive: -0.01,inactive: 0.047,inactive: -0.018,inactive: 0.025
CCT2 (UniProt P78371),inactive: 0.044,inactive: -0.038,inactive: 0.01,inactive: -0.006,inactive: -0.033,inactive: -0.014,inactive: -0.022,inactive: 0.024,inactive: 0.005,inactive: -0.041
CCDC134 (UniProt Q9H6E4),inactive: -0.041,inactive: 0.019,inactive: 0.006,inactive: 0.014,inactive: -0.096,inactive: -0.056,inactive: 0.003,inactive: -0.02,inactive: 0.035,inactive: -0.065
CCDC51 (UniProt Q96ER9),inactive: 0.001,inactive: -0.128,inactive: 0.033,inactive: -0.061,inactive: -0.081,inactive: -0.105,inactive: -0.013,inactive: 0.042,inactive: 0.085,inactive: 0.011
CDC27 isoform 2 (UniProt P30260),inactive: -0.066,inactive: 0.039,inactive: 0.031,inactive: 0.013,inactive: -0.029,inactive: -0.013,inactive: 0.005,inactive: -0.031,inactive: 0.059,inactive: -0.015
CDC25B isoform 4 (UniProt P30305),inactive: -0.038,inactive: 0.005,inactive: -0.056,inactive: 0.052,inactive: -0.018,inactive: 0.026,inactive: -0.013,inactive: 0.068,inactive: -0.012,inactive: 0.03
CCDC28A (UniProt Q8IWP9),inactive: 0.029,inactive: 0.065,inactive: 0.057,inactive: 0.103,inactive: -0.05,inactive: -0.107,inactive: 0.011,inactive: 0.016,inactive: 0.03,
CD2AP (UniProt Q9Y5K6),inactive: 0.001,inactive: 0.025,inactive: 0.015,inactive: 0.008,inactive: -0.027,inactive: 0.041,inactive: 0.003,inactive: -0.012,inactive: -0.01,inactive: 0.035

Target,log2 fold change [1],log2 fold change (filanesib),log2 fold change (zotarolimus),log2 fold change (idasanutlin),log2 fold change (alisertib),log2 fold change [2],log2 fold change (gefitinib),log2 fold change [3],log2 fold change (lapatinib),log2 fold change (pictilisib)
CDC42 isoform 1 (UniProt P60953),inactive: -0.061,inactive: 0.021,inactive: -0.037,inactive: 0.022,inactive: -0.001,inactive: -0.034,inactive: 0.01,inactive: 0.071,inactive: -0.063,inactive: 0.042
CCDC91 (UniProt Q7Z6B0),inactive: 0.114,inactive: -0.037,inactive: -0.066,inactive: 0.04,inactive: -0.051,inactive: -0.006,inactive: 0.016,inactive: -0.012,inactive: -0.009,inactive: 0.036
CCDC127 (UniProt Q96BQ5),inactive: -0.024,inactive: 0.002,inactive: 0.027,inactive: 0.031,inactive: 0.012,inactive: 0.164,inactive: 0.019,inactive: -0.057,inactive: 0.048,inactive: 0.001
CASTOR2 (UniProt A6NHX0),inactive: 0.04,inactive: -0.042,inactive: -0.038,inactive: 0.027,inactive: -0.08,inactive: 0.194,inactive: -0.053,inactive: 0.063,inactive: -0.108,inactive: -0.042
CAVIN1 (UniProt Q6NZI2),inactive: -0.012,inactive: 0.109,inactive: 0,inactive: 0.15,inactive: -0.098,inactive: -0.107,inactive: -0.1,inactive: -0.159,inactive: 0.089,inactive: -0.094
CARS2 (UniProt Q9HA77),inactive: 0.036,inactive: -0.051,inactive: -0.018,inactive: -0.072,inactive: 0.116,inactive: 0.038,inactive: -0.01,inactive: 0.102,inactive: 0.034,inactive: -0.036
CCAR1 (UniProt Q8IX12),inactive: 0.018,inactive: -0.105,inactive: 0.011,inactive: -0.041,inactive: -0.056,inactive: -0.02,inactive: 0.027,inactive: 0.014,inactive: 0.003,inactive: -0.072
CBL (UniProt P22681),inactive: 0.108,inactive: -0.051,inactive: -0.01,inactive: 0.007,inactive: -0.015,inactive: 0.019,inactive: 0,inactive: 0.009,inactive: -0.004,inactive: 0.018
CCSMST1 (UniProt Q4G0I0),inactive: -0.071,inactive: -0.015,inactive: -0.066,inactive: -0.049,inactive: -0.08,inactive: -0.159,inactive: 0.014,inactive: 0.031,inactive: 0.018,
CDC16 (UniProt Q13042),inactive: -0.074,inactive: 0.05,inactive: -0.001,inactive: -0.015,inactive: -0.069,inactive: -0.034,inactive: -0.012,inactive: -0.019,inactive: 0.041,inactive: 0.015
CCDC97 (UniProt Q96F63),inactive: 0.031,inactive: -0.015,inactive: 0.12,inactive: 0.045,inactive: -0.285,inactive: -0.063,inactive: 0.062,inactive: 0.009,inactive: 0.031,
CD81 (UniProt P60033),inactive: -0.051,inactive: 0.049,inactive: 0.003,inactive: -0.014,inactive: -0.007,inactive: 0.008,inactive: 0.043,inactive: 0.052,inactive: -0.032,inactive: 0.138
CCNA2 (UniProt P20248),inactive: -0.013,inactive: 0.009,inactive: -0.008,inactive: 0.016,inactive: -0.032,inactive: -0.037,inactive: -0.002,inactive: 0.026,inactive: 0.04,inactive: -0.024
CAST isoform 6 (UniProt P20810),inactive: -0.038,inactive: 0.02,inactive: -0.038,inactive: 0.014,inactive: -0.042,inactive: 0.024,inactive: -0.012,inactive: 0.048,inactive: -0.044,inactive: 0.03
CARM1 (UniProt Q86X55),inactive: 0.002,inactive: -0.061,inactive: 0.033,inactive: -0.04,inactive: -0.024,inactive: -0.02,inactive: 0.014,inactive: 0.057,inactive: -0.011,inactive: 0.022

# Single records, as listed above. Values in the order: log2 fold change [1]	log2 fold change (filanesib)	log2 fold change (zotarolimus)	log2 fold change (idasanutlin)	log2 fold change (alisertib)	log2 fold change [2]	log2 fold change (gefitinib)	log2 fold change [3]	log2 fold change (lapatinib)	log2 fold change (pictilisib)
# CCDC127 (UniProt Q96BQ5) as listed: inactive: -0.024	inactive: 0.002	inactive: 0.027	inactive: 0.031	inactive: 0.012	inactive: 0.164	inactive: 0.019	inactive: -0.057	inactive: 0.048	inactive: 0.001
# CCAR1 (UniProt Q8IX12) as listed: inactive: 0.018	inactive: -0.105	inactive: 0.011	inactive: -0.041	inactive: -0.056	inactive: -0.02	inactive: 0.027	inactive: 0.014	inactive: 0.003	inactive: -0.072

# From the supplement of paper PMC10849652
